The exact form of at least one protein or probe is not confirmed. The comparison behind a weaker result is the experiment's own reference, which may not be listed here. Where a protein sequence is shown, tags need not be part of it. At least one verdict was read from the data and is not stated in words by the source.

This data set addresses T1, MecI (UniProt P68261).
T1 sequence (looked up, limits assumed): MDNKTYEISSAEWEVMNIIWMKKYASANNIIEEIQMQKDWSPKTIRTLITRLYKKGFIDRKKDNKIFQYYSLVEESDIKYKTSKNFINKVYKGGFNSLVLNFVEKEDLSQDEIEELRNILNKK
Description: EMSA. The following applies: DIG Gel Shift Kit (Roche), manufacturer's recommendations, pH and temperature not stated, recombinant protein.

For “TATATACCAAACCCGACAACTACAACTATTAAAATAAGTGGAACAATTTTTATCTTTTTCATCAATATCCTCCTTATATAAGACTACATTTGTAGTATATTACAAATGTAGTATTTATGTCAAAATAATGTTATAATTTTTGTGATATGGAGGTGTAGAAGGTGTTATCATCTTTTTTAATGTTAAGTATAATCAGTTCATTGCTCACGATAT (double strand) [PmecA 212 bp]”, the binding result is, setting by setting: (plus MBP (control), no specific inhibition, label: DIG, probe letters rebuilt from the primers and the genome) “binds”; (plus MecR2 at MecR2:MecI ratio below one (MecI in excess), label: DIG, probe letters rebuilt from the primers and the genome) “binds more weakly”.

For “TTGACATAAATACTACATTTGTAATATACTACAAATGTA / AGACTACATTTGTAGTATATTACAAATGTAGTATTTATG [MI-Box 39 bp]”, the binding result (no MecR2) is “binds”; the binding result (plus MecR2 at ratio below one, same results as 212 bp) is “binds more weakly”; the binding result (plus excess MecR2, same results as 212 bp) is “binds”.

The values are drawn from PMC3406092.
